Data: the supplement of paper PMC10849652
This is one part of the list.

Sequences of proteins named here, by UniProt entry; tags and fusion partners are left off. A change or cut given only in a name is not applied to a line headed by its entry.
UniProt Q9H3R5: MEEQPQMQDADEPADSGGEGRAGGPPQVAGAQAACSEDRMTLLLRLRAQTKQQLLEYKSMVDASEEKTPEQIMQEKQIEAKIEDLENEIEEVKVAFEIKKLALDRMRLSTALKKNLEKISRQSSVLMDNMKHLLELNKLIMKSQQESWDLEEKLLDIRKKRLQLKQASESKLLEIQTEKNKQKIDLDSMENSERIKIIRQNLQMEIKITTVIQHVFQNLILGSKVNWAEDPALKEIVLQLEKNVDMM
UniProt Q96FF9: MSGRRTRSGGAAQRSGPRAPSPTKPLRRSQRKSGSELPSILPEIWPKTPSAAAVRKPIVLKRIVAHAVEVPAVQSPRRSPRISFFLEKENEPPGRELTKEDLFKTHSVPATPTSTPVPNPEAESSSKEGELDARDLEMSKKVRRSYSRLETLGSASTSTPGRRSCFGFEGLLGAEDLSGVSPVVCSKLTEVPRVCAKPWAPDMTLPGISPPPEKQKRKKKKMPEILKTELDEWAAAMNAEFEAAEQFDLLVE
UniProt O15182: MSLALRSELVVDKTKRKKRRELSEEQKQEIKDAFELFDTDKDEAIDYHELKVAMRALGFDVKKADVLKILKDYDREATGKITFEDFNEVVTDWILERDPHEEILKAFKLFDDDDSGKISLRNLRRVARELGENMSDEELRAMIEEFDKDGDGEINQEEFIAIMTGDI
UniProt Q7L2Z9: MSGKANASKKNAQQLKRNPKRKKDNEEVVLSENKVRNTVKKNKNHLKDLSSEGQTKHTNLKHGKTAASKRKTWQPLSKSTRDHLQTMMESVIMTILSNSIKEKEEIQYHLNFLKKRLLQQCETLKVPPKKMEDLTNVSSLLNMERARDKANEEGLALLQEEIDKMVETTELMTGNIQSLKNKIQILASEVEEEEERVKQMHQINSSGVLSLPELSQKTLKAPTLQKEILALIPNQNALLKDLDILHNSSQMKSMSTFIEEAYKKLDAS
UniProt Q9NRR3: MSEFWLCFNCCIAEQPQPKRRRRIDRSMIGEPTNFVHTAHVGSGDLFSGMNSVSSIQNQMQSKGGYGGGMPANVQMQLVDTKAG
UniProt O75419: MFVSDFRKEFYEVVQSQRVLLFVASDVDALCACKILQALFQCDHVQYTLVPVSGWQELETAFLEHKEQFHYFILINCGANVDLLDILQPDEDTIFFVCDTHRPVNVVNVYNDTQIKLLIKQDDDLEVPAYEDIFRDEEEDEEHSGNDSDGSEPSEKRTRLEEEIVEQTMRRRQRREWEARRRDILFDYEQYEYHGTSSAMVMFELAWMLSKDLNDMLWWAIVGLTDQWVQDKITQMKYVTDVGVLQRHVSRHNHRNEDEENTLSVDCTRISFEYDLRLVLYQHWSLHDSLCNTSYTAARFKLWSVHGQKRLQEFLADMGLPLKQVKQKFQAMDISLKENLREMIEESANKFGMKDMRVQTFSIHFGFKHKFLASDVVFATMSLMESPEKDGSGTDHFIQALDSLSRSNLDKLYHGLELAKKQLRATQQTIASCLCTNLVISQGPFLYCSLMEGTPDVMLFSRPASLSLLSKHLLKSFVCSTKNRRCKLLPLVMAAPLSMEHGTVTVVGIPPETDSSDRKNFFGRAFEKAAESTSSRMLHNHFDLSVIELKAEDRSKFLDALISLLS
UniProt Q9UPN4: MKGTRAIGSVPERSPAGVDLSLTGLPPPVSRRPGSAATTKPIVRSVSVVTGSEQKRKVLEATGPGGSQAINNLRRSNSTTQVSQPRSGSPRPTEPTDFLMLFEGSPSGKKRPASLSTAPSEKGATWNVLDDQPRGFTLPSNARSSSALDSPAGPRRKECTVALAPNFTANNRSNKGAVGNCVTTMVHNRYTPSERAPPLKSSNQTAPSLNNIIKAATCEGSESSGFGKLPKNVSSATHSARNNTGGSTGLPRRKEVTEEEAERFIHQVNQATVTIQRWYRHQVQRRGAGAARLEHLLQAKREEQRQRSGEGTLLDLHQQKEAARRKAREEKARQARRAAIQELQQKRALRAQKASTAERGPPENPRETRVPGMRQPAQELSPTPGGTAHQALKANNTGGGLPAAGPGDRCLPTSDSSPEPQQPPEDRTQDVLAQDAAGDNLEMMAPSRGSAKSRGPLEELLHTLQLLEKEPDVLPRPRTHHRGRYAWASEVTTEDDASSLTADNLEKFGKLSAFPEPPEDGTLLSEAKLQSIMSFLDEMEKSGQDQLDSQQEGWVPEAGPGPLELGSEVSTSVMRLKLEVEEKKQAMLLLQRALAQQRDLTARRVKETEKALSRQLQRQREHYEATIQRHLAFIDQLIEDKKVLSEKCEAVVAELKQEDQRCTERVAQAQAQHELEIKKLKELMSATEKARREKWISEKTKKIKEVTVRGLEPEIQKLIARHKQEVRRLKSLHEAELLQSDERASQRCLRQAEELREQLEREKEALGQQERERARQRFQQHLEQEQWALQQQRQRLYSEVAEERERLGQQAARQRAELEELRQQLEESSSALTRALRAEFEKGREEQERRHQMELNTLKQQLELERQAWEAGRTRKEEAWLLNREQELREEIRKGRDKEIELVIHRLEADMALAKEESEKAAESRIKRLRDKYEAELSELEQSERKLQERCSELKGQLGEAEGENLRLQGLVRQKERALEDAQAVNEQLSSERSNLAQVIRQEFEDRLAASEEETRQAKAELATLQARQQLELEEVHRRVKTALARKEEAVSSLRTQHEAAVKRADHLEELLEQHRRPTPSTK
UniProt Q5VT06: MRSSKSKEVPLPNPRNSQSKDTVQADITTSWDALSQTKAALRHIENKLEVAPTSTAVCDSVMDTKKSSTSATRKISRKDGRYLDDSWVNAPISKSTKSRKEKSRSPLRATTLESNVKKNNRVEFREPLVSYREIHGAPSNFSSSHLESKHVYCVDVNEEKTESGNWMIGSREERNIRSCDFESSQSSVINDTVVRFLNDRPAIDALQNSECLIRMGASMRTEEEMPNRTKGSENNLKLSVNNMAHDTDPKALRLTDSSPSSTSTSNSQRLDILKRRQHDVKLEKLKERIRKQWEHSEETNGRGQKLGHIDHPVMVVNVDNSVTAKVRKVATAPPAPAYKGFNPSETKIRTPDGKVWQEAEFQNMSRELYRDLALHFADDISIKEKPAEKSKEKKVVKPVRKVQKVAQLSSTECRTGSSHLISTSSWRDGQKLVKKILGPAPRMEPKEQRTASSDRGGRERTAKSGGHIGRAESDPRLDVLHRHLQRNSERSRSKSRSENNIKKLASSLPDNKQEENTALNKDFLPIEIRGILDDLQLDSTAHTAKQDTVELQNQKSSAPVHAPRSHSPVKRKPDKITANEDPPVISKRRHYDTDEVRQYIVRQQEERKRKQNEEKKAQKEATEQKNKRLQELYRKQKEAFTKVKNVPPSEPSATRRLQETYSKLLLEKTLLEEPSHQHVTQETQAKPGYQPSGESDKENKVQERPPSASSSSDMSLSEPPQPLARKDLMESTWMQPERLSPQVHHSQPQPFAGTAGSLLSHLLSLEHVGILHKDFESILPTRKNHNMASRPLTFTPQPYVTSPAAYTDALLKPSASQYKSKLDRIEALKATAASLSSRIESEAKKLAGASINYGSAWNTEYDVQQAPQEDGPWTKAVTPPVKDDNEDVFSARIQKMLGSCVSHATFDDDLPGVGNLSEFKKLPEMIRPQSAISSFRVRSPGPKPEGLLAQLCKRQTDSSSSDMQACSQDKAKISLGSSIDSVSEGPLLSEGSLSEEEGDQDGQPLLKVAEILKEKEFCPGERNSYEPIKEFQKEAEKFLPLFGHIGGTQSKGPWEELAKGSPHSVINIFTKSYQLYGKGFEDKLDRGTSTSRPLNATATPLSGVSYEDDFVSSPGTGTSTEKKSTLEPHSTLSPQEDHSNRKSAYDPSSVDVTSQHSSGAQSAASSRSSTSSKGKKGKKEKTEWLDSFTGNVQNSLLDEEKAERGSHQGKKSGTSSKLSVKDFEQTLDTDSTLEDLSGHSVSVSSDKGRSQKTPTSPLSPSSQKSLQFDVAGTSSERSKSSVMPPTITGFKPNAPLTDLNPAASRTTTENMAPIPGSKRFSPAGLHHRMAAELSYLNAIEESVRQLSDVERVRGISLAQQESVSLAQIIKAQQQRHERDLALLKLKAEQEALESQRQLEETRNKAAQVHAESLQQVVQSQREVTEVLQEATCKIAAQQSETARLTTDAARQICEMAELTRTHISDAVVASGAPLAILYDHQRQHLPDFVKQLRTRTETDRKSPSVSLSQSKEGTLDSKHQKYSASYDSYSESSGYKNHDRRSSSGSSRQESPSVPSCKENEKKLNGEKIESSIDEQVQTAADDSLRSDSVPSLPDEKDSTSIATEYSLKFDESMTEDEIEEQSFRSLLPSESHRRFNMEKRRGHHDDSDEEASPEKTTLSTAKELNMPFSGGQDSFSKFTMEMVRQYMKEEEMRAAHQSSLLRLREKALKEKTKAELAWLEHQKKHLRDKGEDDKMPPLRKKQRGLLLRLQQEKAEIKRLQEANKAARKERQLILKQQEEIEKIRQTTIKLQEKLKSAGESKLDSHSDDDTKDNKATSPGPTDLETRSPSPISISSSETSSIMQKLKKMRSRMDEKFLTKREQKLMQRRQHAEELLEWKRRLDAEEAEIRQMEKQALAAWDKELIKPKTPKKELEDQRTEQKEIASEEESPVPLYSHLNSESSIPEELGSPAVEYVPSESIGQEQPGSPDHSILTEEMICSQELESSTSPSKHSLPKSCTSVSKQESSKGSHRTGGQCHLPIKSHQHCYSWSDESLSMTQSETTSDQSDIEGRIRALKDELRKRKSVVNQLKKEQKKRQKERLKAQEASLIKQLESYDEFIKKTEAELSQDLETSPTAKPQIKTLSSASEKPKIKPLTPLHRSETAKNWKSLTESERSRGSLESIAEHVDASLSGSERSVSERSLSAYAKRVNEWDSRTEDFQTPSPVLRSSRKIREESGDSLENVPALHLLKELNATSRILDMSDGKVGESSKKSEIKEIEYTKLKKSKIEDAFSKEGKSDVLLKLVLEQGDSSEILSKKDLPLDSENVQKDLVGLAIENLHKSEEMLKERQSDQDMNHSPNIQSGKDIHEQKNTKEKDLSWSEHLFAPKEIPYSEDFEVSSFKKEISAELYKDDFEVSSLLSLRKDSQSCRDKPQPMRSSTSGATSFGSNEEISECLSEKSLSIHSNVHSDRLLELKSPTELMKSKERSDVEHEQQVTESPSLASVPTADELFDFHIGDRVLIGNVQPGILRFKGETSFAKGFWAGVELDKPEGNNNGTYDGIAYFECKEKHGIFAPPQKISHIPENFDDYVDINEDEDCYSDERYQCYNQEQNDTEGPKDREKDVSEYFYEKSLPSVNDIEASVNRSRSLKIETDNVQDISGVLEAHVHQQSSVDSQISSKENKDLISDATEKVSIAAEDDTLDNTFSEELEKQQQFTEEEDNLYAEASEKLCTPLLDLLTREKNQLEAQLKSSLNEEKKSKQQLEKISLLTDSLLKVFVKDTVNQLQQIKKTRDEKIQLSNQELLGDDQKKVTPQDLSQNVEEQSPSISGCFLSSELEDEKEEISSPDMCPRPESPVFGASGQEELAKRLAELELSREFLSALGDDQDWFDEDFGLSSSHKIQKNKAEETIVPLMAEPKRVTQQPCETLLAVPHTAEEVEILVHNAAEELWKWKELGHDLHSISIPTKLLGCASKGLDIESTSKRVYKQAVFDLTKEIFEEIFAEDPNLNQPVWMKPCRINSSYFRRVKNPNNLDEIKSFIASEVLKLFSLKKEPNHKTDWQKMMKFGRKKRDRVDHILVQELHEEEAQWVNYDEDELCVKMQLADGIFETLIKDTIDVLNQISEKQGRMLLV
UniProt Q99618: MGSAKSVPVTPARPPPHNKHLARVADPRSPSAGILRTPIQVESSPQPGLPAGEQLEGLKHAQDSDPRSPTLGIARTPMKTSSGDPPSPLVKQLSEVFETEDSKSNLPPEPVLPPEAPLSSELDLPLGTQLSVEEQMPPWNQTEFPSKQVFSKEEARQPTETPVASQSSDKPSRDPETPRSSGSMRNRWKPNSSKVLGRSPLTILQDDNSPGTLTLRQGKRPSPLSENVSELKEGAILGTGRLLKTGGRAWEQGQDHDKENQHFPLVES
UniProt Q86X02: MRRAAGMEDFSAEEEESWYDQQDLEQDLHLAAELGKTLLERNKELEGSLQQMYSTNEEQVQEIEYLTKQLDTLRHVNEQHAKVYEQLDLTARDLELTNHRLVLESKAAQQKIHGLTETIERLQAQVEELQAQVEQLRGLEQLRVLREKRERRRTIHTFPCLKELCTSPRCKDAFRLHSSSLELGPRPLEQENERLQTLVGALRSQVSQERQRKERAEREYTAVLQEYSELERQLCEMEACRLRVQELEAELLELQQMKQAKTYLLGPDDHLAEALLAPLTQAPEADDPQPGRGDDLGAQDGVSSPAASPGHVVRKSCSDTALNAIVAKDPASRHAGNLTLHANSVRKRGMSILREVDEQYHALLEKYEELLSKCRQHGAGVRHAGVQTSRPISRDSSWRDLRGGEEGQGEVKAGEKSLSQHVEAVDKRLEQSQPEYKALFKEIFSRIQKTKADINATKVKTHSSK

Columns and labels:
Experiment in all cases: log2 fold change, soluble protein after heating vs DMSO (PISA); higher = thermal stabilisation; K562 lysate, 10 uM; active = over 0.2 and 3.5 SD of the protein, either way, in both replicates (recomputed)
lapatinib = compound: CS(=O)(=O)CCNCc1ccc(-c2ccc3ncnc(Nc4ccc(OCc5cccc(F)c5)c(Cl)c4)c3c2)o1 [lapatinib]
Procedure, shortened: (§1)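 Thermal stability, expressed as log-two fold change relative to solvent controls, is given from duplicates. Crude K562 extract in PBS pH 7.4 with 1 mM MgCl2, at 1 mg/mL protein, was treated with 10 μM compound for 30 min and heated in aliquots for 3 min across 48°C-58°C. After pooling, adjustment to 0.5% NP-40 at 4°C and centrifugation at 21,000xg for 90 min, supernatant protein was measured by TMTpro 16plex LC-MS/MS with channel sums equalised.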

pictilisib = compound: CS(=O)(=O)N1CCN(Cc2cc3nc(-c4cccc5[nH]ncc45)nc(N4CCOCC4)c3s2)CC1 [pictilisib]
Procedure, shortened: as §1

crizotinib = compound: C[C@@H](Oc1cc(-c2cnn(C3CCNCC3)c2)cnc1N)c1c(Cl)ccc(F)c1Cl [crizotinib]
Procedure, shortened: as §1

[1] = compound: C[C@H](C1=CC=C(C=C1)C(=O)NC2=C3C=CNC3=NC=C2)N
Procedure, shortened: as §1

duvelisib = compound: C[C@H](Nc1ncnc2nc[nH]c12)c1cc2cccc(Cl)c2c(=O)n1-c1ccccc1 [duvelisib]
Procedure, shortened: as §1

gandotinib = compound: Cc1cc(Nc2cc(CN3CCOCC3)c3nc(C)c(Cc4ccc(Cl)cc4F)n3n2)n[nH]1 [gandotinib]
Procedure, shortened: as §1

tozasertib = compound: Cc1cc(Nc2cc(N3CCN(C)CC3)nc(Sc3ccc(NC(=O)C4CC4)cc3)n2)n[nH]1 [tozasertib]
Procedure, shortened: as §1

doramapimod = compound: Cc1ccc(-n2nc(C(C)(C)C)cc2NC(=O)Nc2ccc(OCCN3CCOCC3)c3ccccc23)cc1 [doramapimod]
Procedure, shortened: as §1

bafetinib = compound: Cc1ccc(NC(=O)c2ccc(CN3CC[C@H](N(C)C)C3)c(C(F)(F)F)c2)cc1Nc1nccc(-c2cncnc2)n1 [bafetinib]
Procedure, shortened: as §1

[2] = compound: Cc1cccc(CC(=O)N2CCc3c2ccc(-c2cn(C)c4ncnc(N)c24)c3F)n1
Procedure, shortened: as §1

nilotinib = compound: Cc1cn(-c2cc(NC(=O)c3ccc(C)c(Nc4nccc(-c5cccnc5)n4)c3)cc(C(F)(F)F)c2)cn1 [nilotinib]
Procedure, shortened: as §1

[3] = compound: Cc1nc(Nc2n[nH]c3c2CN(C(=O)N[C@H](CN(C)C)c2ccccc2)C3(C)C)c2sccc2n1
Procedure, shortened: as §1

dasatinib = compound: Cc1nc(Nc2ncc(C(=O)Nc3c(C)cccc3Cl)s2)cc(N2CCN(CCO)CC2)n1 [dasatinib]
Procedure, shortened: as §1

[4] = compound: Cc1ncc(-c2ccnc(Nc3ccc(S(C)(=O)=O)cc3)n2)n1C(C)C
Procedure, shortened: as §1

[5] = compound: Cn1cc(-c2ccc3c(c2)CCN3C(=O)Cc2cccc(C(F)(F)F)c2)c2c(N)ncnc21
Procedure, shortened: as §1

quisinostat = compound: Cn1cc(CNCC2CCN(c3ncc(C(=O)NO)cn3)CC2)c2ccccc21 [quisinostat]
Procedure, shortened: as §1

tipifarnib = compound: Cn1cncc1[C@@](N)(c1ccc(Cl)cc1)c1ccc2c(c1)c(-c1cccc(Cl)c1)cc(=O)n2C [tipifarnib]
Procedure, shortened: as §1

[6] = compound: NC(=O)Nc1cc(-c2cccc(F)c2)sc1C(=O)N[C@H]1CCCNC1
Procedure, shortened: as §1

[7] = compound: NC(=O)c1cnc(N[C@@H]2CCCC[C@@H]2N)nc1Nc1cccc(-n2nccn2)c1
Procedure, shortened: as §1

[8] = compound: NC1(c2ccc(-c3nc4ccn5c(=O)[nH]nc5c4cc3-c3ccccc3)cc2)CCC1
Procedure, shortened: as §1

| Target | log2 fold change (lapatinib) | log2 fold change (pictilisib) | log2 fold change (crizotinib) | log2 fold change [1] | log2 fold change (duvelisib) | log2 fold change (gandotinib) | log2 fold change (tozasertib) | log2 fold change (doramapimod) | log2 fold change (bafetinib) | log2 fold change [2] | log2 fold change (nilotinib) | log2 fold change [3] | log2 fold change (dasatinib) | log2 fold change [4] | log2 fold change [5] | log2 fold change (quisinostat) | log2 fold change (tipifarnib) | log2 fold change [6] | log2 fold change [7] | log2 fold change [8] |
| --- | --- | --- | --- | --- | --- | --- | --- | --- | --- | --- | --- | --- | --- | --- | --- | --- | --- | --- | --- | --- |
| CENPH (UniProt Q9H3R5) | inactive: 0.006 | inactive: -0.018 | inactive: 0.001 | inactive: 0.04 | inactive: 0.025 | inactive: -0.05 | inactive: 0.018 | inactive: 0.015 | inactive: 0 | inactive: -0.094 | inactive: 0.006 | inactive: 0.02 | inactive: 0.02 | inactive: -0.019 | inactive: 0 | inactive: -0.071 | inactive: 0.004 | inactive: 0.042 | inactive: 0.009 | inactive: -0.006 |
| CDCA5 (UniProt Q96FF9) | inactive: 0.083 | inactive: 0.066 | inactive: -0.028 | inactive: 0.037 | inactive: 0.027 | inactive: 0.234 | inactive: 0.07 | inactive: 0.323 | inactive: -0.098 | inactive: 0.039 | inactive: 0.187 | inactive: -0.087 | inactive: -0.145 | inactive: 0.066 | inactive: -0.004 | inactive: -0.102 | inactive: -0.026 | inactive: 0.074 | inactive: 0.075 | inactive: -0.115 |
| CETN3 (UniProt O15182) | inactive: 0.097 | inactive: 0.051 | inactive: 0.087 | inactive: 0.065 | inactive: 0.011 | inactive: -0.023 | inactive: 0.089 | inactive: 0.042 | inactive: -0.064 | inactive: 0.008 | inactive: -0.005 | inactive: -0.012 | inactive: -0.069 | inactive: -0.105 | inactive: 0.01 | inactive: 0.069 | inactive: -0.028 | inactive: -0.057 | inactive: 0.05 | inactive: 0.034 |
| CDC42BPB (UniProt Q9Y5S2) | inactive: -0.11 | inactive: -0.009 | inactive: -0.182 | inactive: 0.223 | inactive: 0.055 | inactive: -0.177 | inactive: 0.107 | inactive: 0.199 | inactive: -0.062 | inactive: -0.042 | inactive: -0.009 | inactive: -0.007 | inactive: -0.154 | inactive: -0.016 | inactive: -0.037 | inactive: -0.227 | inactive: 0.007 | inactive: -0.028 | inactive: 0.02 | inactive: -0.179 |
| CENPQ (UniProt Q7L2Z9) | inactive: 0.101 | inactive: 0.015 | inactive: -0.028 | inactive: -0.226 | inactive: -0.027 | inactive: 0.071 | inactive: -0.196 | inactive: 0.001 | inactive: 0.017 | inactive: -0.013 | inactive: -0.025 | inactive: 0.044 | inactive: 0 | inactive: -0.036 | inactive: -0.015 | inactive: 0.07 | inactive: -0.076 | inactive: 0.047 | inactive: 0.164 | inactive: -0.107 |
| CEP97 (UniProt Q8IW35) | inactive: 0.019 | inactive: 0.019 | inactive: -0.081 | inactive: 0.004 | inactive: -0.015 | inactive: -0.001 | inactive: 0.026 | inactive: -0.025 | inactive: -0.115 | inactive: 0.027 | inactive: 0.007 | inactive: -0.015 | inactive: -0.055 | inactive: 0.005 | inactive: 0.023 | inactive: -0.108 | inactive: -0.029 | inactive: 0.016 | inactive: 0.003 | inactive: -0.033 |
| CDC42SE2 (UniProt Q9NRR3) | inactive: 0.011 | inactive: 0.05 | inactive: -0.021 | inactive: 0.105 | inactive: 0.031 | inactive: -0.067 | inactive: -0.051 | inactive: -0.029 | inactive: 0.043 | inactive: 0.019 | inactive: 0.19 | inactive: -0.036 | inactive: -0.044 | inactive: -0.041 | inactive: -0.058 | inactive: 0.06 | inactive: 0.085 | inactive: 0.022 | inactive: -0.043 | inactive: -0.065 |
| CENPF (UniProt P49454) | inactive: -0.029 | inactive: -0.011 | inactive: 0 | inactive: 0.074 | inactive: -0.013 | inactive: -0.037 | inactive: 0.01 | inactive: -0.008 | inactive: 0.015 | inactive: 0.002 | inactive: 0.007 | inactive: 0.005 | inactive: -0.001 | inactive: 0.025 | inactive: 0.006 | inactive: -0.019 | inactive: -0.017 | inactive: -0.001 | inactive: -0.018 | inactive: -0.003 |
| CEP135 (UniProt Q66GS9) | inactive: -0.017 | inactive: -0.04 | inactive: -0.014 | inactive: -0.04 | inactive: 0.021 | inactive: -0.012 | inactive: 0.114 | inactive: -0.001 | inactive: -0.089 | inactive: 0.066 | inactive: -0.015 | inactive: 0.067 | inactive: -0.057 | inactive: -0.008 | inactive: 0.01 | inactive: -0.097 | inactive: -0.02 | inactive: 0.052 | inactive: -0.022 | inactive: -0.031 |
| CDC45 isoform 3 (UniProt O75419) | inactive: -0.036 | inactive: -0.014 | inactive: -0.009 | inactive: 0.023 | inactive: -0.007 | inactive: -0.079 | inactive: 0 | inactive: -0.002 | inactive: -0.077 | inactive: -0.018 | inactive: -0.022 | inactive: 0.013 | inactive: -0.044 | inactive: -0.003 | inactive: 0.038 | inactive: 0.015 | inactive: -0.022 | inactive: 0.047 | inactive: 0.003 | inactive: -0.058 |
| CEP131 (UniProt Q9UPN4) | inactive: 0.002 | inactive: 0.045 | inactive: -0.018 | inactive: -0.049 | inactive: -0.118 | inactive: 0.09 | inactive: -0.019 | inactive: -0.013 | inactive: -0.065 | inactive: 0.103 | inactive: 0.013 | inactive: 0.056 | inactive: 0.052 | inactive: 0.047 | inactive: -0.028 | inactive: -0.078 | inactive: 0.031 | inactive: -0.009 | inactive: 0.026 | inactive: -0.2 |
| CEP350 (UniProt Q5VT06) | inactive: -0.034 | inactive: 0.005 | inactive: 0.012 | inactive: 0.005 | inactive: 0.012 | inactive: 0.031 | inactive: 0.038 | inactive: 0.009 | inactive: 0.026 | inactive: 0.071 | inactive: -0.015 | inactive: -0.014 | inactive: -0.052 | inactive: -0.03 | inactive: -0.003 | inactive: 0.102 | inactive: 0.035 | inactive: 0.014 | inactive: 0.01 | inactive: 0.006 |
| CDCA3 (UniProt Q99618) | inactive: 0.014 | inactive: 0.007 | inactive: 0.038 | inactive: -0.062 | inactive: -0.021 | inactive: 0.053 | inactive: 0.098 | inactive: 0.088 | inactive: 0.014 | inactive: 0.051 | inactive: 0.014 | inactive: -0.069 | inactive: -0.017 | inactive: 0.016 | inactive: -0.035 | inactive: 0.003 | inactive: 0.027 | inactive: 0.004 | inactive: 0.004 | inactive: 0.009 |
| CDR2L (UniProt Q86X02) | inactive: -0.004 | inactive: -0.066 | inactive: 0.018 | inactive: -0.059 | inactive: -0.008 | inactive: -0.04 | inactive: -0.031 | inactive: -0.003 | inactive: 0.052 | inactive: -0.104 | inactive: -0.056 | inactive: -0.123 | inactive: 0.047 | inactive: 0.048 | inactive: -0.031 | inactive: -0.054 | inactive: -0.005 | inactive: -0.009 | inactive: 0.013 | inactive: -0.044 |
| CDK13 (UniProt Q14004) | inactive: -0.077 | inactive: 0.108 | inactive: 0.08 | inactive: 0.025 | inactive: -0.006 | inactive: -0.1 | inactive: 0.027 | inactive: 0.002 | inactive: 0.101 | inactive: -0.046 | inactive: -0.081 | inactive: 0 | inactive: 0.004 | inactive: -0.051 | inactive: 0.005 | inactive: 0.068 | inactive: 0.032 | inactive: -0.039 | inactive: 0.033 | inactive: 0.131 |
| CDK9 isoform 2 (UniProt P50750) | inactive: -0.103 | inactive: 0.034 | inactive: 0.067 | inactive: 0.066 | inactive: -0.026 | inactive: 0.074 | inactive: -0.108 | inactive: -0.02 | inactive: -0.125 | inactive: -0.056 | inactive: -0.035 | inactive: 0.255 | inactive: 0.003 | active: 0.403 | inactive: -0.007 | inactive: -0.028 | inactive: -0.016 | inactive: 0.009 | inactive: 0.078 | inactive: -0.04 |
